This test deals with Rbpj (mouse (endogenous in trophoblast cells)) (UniProt P31266). The experiment in a line: co-IP; 1 mg protein from trophoblast cells lysed in mild buffer (25 mM Tris, 150 mM NaCl, 1 mM EDTA, 1% Nonidet P-40, 5% glycerol; pH 7.4); antibodies to Rbpj and Mash2; Protein A agarose beads, overnight at 4 °C; immunoblot.

Chains of the proteins cited; added tags and fusions are not shown.
UniProt P31266: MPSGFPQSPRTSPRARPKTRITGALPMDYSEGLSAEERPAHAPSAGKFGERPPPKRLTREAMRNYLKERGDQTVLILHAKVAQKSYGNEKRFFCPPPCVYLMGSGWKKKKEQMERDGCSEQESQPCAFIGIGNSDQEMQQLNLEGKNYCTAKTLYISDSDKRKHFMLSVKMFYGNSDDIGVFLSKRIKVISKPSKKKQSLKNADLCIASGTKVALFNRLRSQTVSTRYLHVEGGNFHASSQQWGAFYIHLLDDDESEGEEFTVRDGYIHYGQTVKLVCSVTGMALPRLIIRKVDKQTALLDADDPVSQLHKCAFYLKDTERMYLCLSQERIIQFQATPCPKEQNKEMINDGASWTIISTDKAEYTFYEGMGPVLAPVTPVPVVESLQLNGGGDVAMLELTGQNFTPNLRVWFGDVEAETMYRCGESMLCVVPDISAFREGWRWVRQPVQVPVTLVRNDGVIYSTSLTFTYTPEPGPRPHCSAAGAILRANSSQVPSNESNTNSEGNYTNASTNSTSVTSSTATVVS
UniProt O35885: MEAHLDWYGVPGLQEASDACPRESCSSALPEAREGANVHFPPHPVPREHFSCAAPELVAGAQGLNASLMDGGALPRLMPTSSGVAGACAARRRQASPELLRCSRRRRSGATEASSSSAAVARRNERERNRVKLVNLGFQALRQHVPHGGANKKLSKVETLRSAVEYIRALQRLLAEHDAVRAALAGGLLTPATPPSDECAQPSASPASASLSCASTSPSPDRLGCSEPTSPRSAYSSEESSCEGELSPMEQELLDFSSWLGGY

No constants are given. Whether binding was seen depends on the method and setting. In cells and extracts the contact can be indirect. Some entries that bind do so weakly or less than the wild type.

Consider “achaete-scute complex homolog-like 2 (from UniProt O35885 1-263)”, for which the binding result was “binds”.
